Laboratory results published in publication doi:10.1101/2022.12.21.521423 (bioRxiv, 2022).

Target: T1, LRRC37B-HA (human) (UniProt Q96QE4)
T1 sequence: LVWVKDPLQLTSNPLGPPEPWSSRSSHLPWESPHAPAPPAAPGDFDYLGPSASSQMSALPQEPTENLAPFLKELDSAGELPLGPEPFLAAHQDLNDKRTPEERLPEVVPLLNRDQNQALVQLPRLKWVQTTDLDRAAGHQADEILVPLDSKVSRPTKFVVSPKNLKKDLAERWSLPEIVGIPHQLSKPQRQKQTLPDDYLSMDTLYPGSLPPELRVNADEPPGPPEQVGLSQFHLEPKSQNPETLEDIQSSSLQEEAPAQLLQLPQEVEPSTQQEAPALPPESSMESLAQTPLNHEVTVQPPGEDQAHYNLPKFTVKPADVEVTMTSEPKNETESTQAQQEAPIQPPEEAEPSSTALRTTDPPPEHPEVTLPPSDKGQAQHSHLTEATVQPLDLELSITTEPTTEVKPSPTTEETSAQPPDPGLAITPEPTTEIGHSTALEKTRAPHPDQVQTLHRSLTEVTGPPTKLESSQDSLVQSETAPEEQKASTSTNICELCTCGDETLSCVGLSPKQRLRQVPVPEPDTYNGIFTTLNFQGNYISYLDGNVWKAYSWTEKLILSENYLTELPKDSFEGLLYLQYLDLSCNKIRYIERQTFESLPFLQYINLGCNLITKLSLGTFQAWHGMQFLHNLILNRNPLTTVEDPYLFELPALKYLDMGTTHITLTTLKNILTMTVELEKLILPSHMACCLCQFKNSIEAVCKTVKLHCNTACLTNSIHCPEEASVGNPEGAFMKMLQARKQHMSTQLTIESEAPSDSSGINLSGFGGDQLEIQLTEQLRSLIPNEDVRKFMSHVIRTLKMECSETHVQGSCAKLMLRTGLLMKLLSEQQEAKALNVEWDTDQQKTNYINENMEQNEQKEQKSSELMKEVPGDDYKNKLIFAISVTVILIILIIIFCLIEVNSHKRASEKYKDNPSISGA
Test: co-IP

FGF13 core domain (human (from the printed UniProt entry)) (domain or fragment)
binding: no binding

Results are given in words; binding and its absence hold for the method and conditions named. In cells and extracts the contact can be indirect. Where a sequence is shown, tags or fusion partners need not be part of it.
